# Results: the supplement of paper PMC8728848
# This is one part of the list.
# Legend:
# Assay in all cases: glycan array binding signal (z-score within array); higher = stronger binding
# Details in all cases: glycan notation: IUPAC condensed, linker removed
# [1] = target: Gal(b1-3)GlcNAc(b1-6)[Gal(b1-3)]GalNAc
# How it was run: (§1)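 The binding signal is a Z-score computed within each array and averaged over linkers. Arrays of the same protein sequence at different concentrations or buffers were also averaged together. Data originate from 3228 arrays in the Consortium for Functional Glycomics database, kept only where the protein sequence was available.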
# Gal(b1-3)GlcNAc6S = target: Gal(b1-3)GlcNAc6S
# How it was run: as §1
# [2] = target: Gal(b1-3)[Fuc(a1-4)]GlcNAc
# How it was run: as §1
# [3] = target: Gal(b1-3)[Fuc(a1-4)]GlcNAc(b1-2)Man
# How it was run: as §1
# [4] = target: Gal(b1-3)[Fuc(a1-4)]GlcNAc(b1-2)Man(a1-3)[Gal(b1-3)[Fuc(a1-4)]GlcNAc(b1-2)Man(a1-6)]Man(b1-4)GlcNAc(b1-4)[Fuc(a1-6)]GlcNAc
# How it was run: as §1
# [5] = target: Gal(b1-3)[Fuc(a1-4)]GlcNAc(b1-3)Gal(b1-3)[Fuc(a1-4)]GlcNAc
# How it was run: as §1
# [6] = target: Gal(b1-3)[Fuc(a1-4)]GlcNAc(b1-3)Gal(b1-4)[Fuc(a1-3)]GlcNAc
# How it was run: as §1
# [7] = target: Gal(b1-3)[Fuc(a1-4)]GlcNAc(b1-6)GalNAc
# How it was run: as §1
# [8] = target: Gal(b1-3)[GlcNAc(b1-6)]GalNAc
# How it was run: as §1
# [9] = target: Gal(b1-3)[Neu5Ac(a2-6)]GalNAc
# How it was run: as §1
# [10] = target: Gal(b1-3)[Neu5Ac(a2-6)]GlcNAc(b1-4)Gal(b1-4)Glc
# How it was run: as §1
# [11] = target: Gal(b1-3)[Neu5Ac(b2-6)]GalNAc
# How it was run: as §1
# Gal(b1-4)Gal = target: Gal(b1-4)Gal
# How it was run: as §1
# [12] = target: Gal(b1-4)GalNAc(a1-3)[Fuc(a1-2)]Gal(b1-4)GlcNAc
# How it was run: as §1
# [13] = target: Gal(b1-4)GalNAc(b1-3)[Fuc(a1-2)]Gal(b1-4)GlcNAc
# How it was run: as §1
# Gal(b1-4)Glc = target: Gal(b1-4)Glc
# How it was run: as §1
# Gal(b1-4)Glc6S = target: Gal(b1-4)Glc6S
# How it was run: as §1
# Gal(b1-4)GlcNAc = target: Gal(b1-4)GlcNAc
# How it was run: as §1
# [14] = target: Gal(b1-4)GlcNAc(a1-6)Gal(b1-4)GlcNAc
# How it was run: as §1
# Gal(b1-4)GlcNAc(b1-2)Man = target: Gal(b1-4)GlcNAc(b1-2)Man
# How it was run: as §1
# [15] = target: Gal(b1-4)GlcNAc(b1-2)Man(a1-3)Man(b1-4)GlcNAc(b1-4)GlcNAc
# How it was run: as §1
# [16] = target: Gal(b1-4)GlcNAc(b1-2)Man(a1-3)[Gal(b1-4)GlcNAc(b1-2)Man(a1-6)]Man(b1-4)GlcNAc(b1-4)GlcNAc
# How it was run: as §1
# [17] = target: Gal(b1-4)GlcNAc(b1-2)Man(a1-3)[Gal(b1-4)GlcNAc(b1-2)Man(a1-6)]Man(b1-4)GlcNAc(b1-4)[Fuc(a1-6)]GlcNAc
# How it was run: as §1
# [18] = target: Gal(b1-4)GlcNAc(b1-2)Man(a1-3)[Gal(b1-4)GlcNAc(b1-2)Man(a1-6)][Gal(b1-4)GlcNAc(b1-4)]Man(b1-4)GlcNAc(b1-4)[Fuc(a1-6)]GlcNAc
# How it was run: as §1
# [19] = target: Gal(b1-4)GlcNAc(b1-2)Man(a1-3)[Gal(b1-4)GlcNAc(b1-2)Man(a1-6)][GlcNAc(b1-4)]Man(b1-4)GlcNAc(b1-4)[Fuc(a1-6)]GlcNAc
# How it was run: as §1
# [20] = target: Gal(b1-4)GlcNAc(b1-2)Man(a1-3)[GlcNAc(b1-2)Man(a1-6)]Man(b1-4)GlcNAc(b1-4)GlcNAc
# How it was run: as §1
# [21] = target: Gal(b1-4)GlcNAc(b1-2)Man(a1-3)[GlcNAc(b1-4)][Gal(b1-4)GlcNAc(b1-2)Man(a1-6)]Man(b1-4)GlcNAc(b1-4)GlcNAc
# How it was run: as §1
# [22] = target: Gal(b1-4)GlcNAc(b1-2)Man(a1-3)[Man(a1-6)]Man(b1-4)GlcNAc(b1-4)GlcNAc
# How it was run: as §1
# [23] = target: Gal(b1-4)GlcNAc(b1-2)Man(a1-6)Man(b1-4)GlcNAc(b1-4)GlcNAc
# How it was run: as §1
# [24] = target: Gal(b1-4)GlcNAc(b1-2)Man(a1-6)[GlcNAc(b1-2)Man(a1-3)]Man(b1-4)GlcNAc(b1-4)GlcNAc
# How it was run: as §1
# [25] = target: Gal(b1-4)GlcNAc(b1-2)Man(a1-6)[Man(a1-3)]Man(b1-4)GlcNAc(b1-4)GlcNAc
# How it was run: as §1
# [26] = target: Gal(b1-4)GlcNAc(b1-2)[Gal(b1-4)GlcNAc(b1-4)]Man(a1-3)[Gal(b1-4)GlcNAc(b1-2)Man(a1-6)]Man(b1-4)GlcNAc(b1-4)GlcNAc
# How it was run: as §1
# [27] = target: Gal(b1-4)GlcNAc(b1-2)[Gal(b1-4)GlcNAc(b1-4)]Man(a1-3)[Gal(b1-4)GlcNAc(b1-2)[Gal(b1-4)GlcNAc(b1-6)]Man(a1-6)]Man(b1-4)GlcNAc(b1-4)GlcNAc
# How it was run: as §1
# [28] = target: Gal(b1-4)GlcNAc(b1-2)[Gal(b1-4)GlcNAc(b1-4)]Man(a1-3)[GlcNAc(b1-4)][Gal(b1-4)GlcNAc(b1-2)Man(a1-6)]Man(b1-4)GlcNAc(b1-4)GlcNAc
# How it was run: as §1
# [29] = target: Gal(b1-4)GlcNAc(b1-2)[Gal(b1-4)GlcNAc(b1-4)]Man(a1-3)[GlcNAc(b1-4)][Gal(b1-4)GlcNAc(b1-2)[Gal(b1-4)GlcNAc(b1-6)]Man(a1-6)]Man(b1-4)GlcNAc(b1-4)GlcNAc
# How it was run: as §1
# [30] = target: Gal(b1-4)GlcNAc(b1-2)[Gal(b1-4)GlcNAc(b1-6)]Man(a1-6)[Gal(b1-4)GlcNAc(b1-2)Man(a1-3)]Man(b1-4)GlcNAc(b1-4)GlcNAc
# How it was run: as §1
# [31] = target: Gal(b1-4)GlcNAc(b1-2)[Gal(b1-4)GlcNAc(b1-6)]Man(a1-6)[Gal(b1-4)GlcNAc(b1-2)Man(a1-3)]Man(b1-4)GlcNAc(b1-4)[Fuc(a1-6)]GlcNAc
# How it was run: as §1
# [32] = target: Gal(b1-4)GlcNAc(b1-2)[Gal(b1-4)GlcNAc(b1-6)]Man(a1-6)[GlcNAc(b1-4)][Gal(b1-4)GlcNAc(b1-2)Man(a1-3)]Man(b1-4)GlcNAc(b1-4)GlcNAc
# How it was run: as §1
# [33] = target: Gal(b1-4)GlcNAc(b1-2)[Gal(b1-4)GlcNAc(b1-6)]Man(a1-6)[GlcNAc(b1-4)][Gal(b1-4)GlcNAc(b1-2)[Gal(b1-4)GlcNAc(b1-4)]Man(a1-3)]Man(b1-4)GlcNAc(b1-4)[Fuc(a1-6)]GlcNAc
# How it was run: as §1
# [34] = target: Gal(b1-4)GlcNAc(b1-3)Gal(b1-3)GalNAc
# How it was run: as §1
# [35] = target: Gal(b1-4)GlcNAc(b1-3)Gal(b1-3)GlcNAc
# How it was run: as §1
# [36] = target: Gal(b1-4)GlcNAc(b1-3)Gal(b1-4)Glc
# How it was run: as §1
# [37] = target: Gal(b1-4)GlcNAc(b1-3)Gal(b1-4)GlcNAc
# How it was run: as §1
# [38] = target: Gal(b1-4)GlcNAc(b1-3)Gal(b1-4)GlcNAc(b1-2)Man(a1-3)[Gal(b1-4)GlcNAc(b1-3)Gal(b1-4)GlcNAc(b1-2)Man(a1-6)]Man(b1-4)GlcNAc(b1-4)GlcNAc
# How it was run: as §1
# [39] = target: Gal(b1-4)GlcNAc(b1-3)Gal(b1-4)GlcNAc(b1-2)Man(a1-3)[Gal(b1-4)GlcNAc(b1-3)Gal(b1-4)GlcNAc(b1-2)Man(a1-6)]Man(b1-4)GlcNAc(b1-4)[Fuc(a1-6)]GlcNAc
# How it was run: as §1
binder,measurement,setting,value
Nc3LysM-2 (protein) AHVLQARQSVSCDFATAANTGDTCASFAAAWGITEAAFAKLNPGVSCPGNLIAGSEYCVIGTVSTGAPTTTKAATTSTTPPTTTTTTKATTLSTSTTSVSPTGPSPQMPSITSTCNKFYQVQSGDGCWSIEQAQGVSASDFMAWNKAVDAQCDNLWLGYYVCVGVKGGSSPPPTTTTKPASSSAPTPQMPNTVSNCKKFHKVVSGDGCWAIEQAAGISASDFAKWNPYVDAACDNLWLGYYVCIGV,glycan array binding signal (z-score),[1],1.5
same,glycan array binding signal (z-score),Gal(b1-3)GlcNAc6S,-1.15
same,glycan array binding signal (z-score),[2],-0.207
same,glycan array binding signal (z-score),[3],-0.039
same,glycan array binding signal (z-score),[4],0.856
same,glycan array binding signal (z-score),[5],0.143
same,glycan array binding signal (z-score),[6],-0.687
same,glycan array binding signal (z-score),[7],0.297
same,glycan array binding signal (z-score),[8],-0.572
same,glycan array binding signal (z-score),[9],0.531
same,glycan array binding signal (z-score),[10],-1.06
same,glycan array binding signal (z-score),[11],-1.08
same,glycan array binding signal (z-score),Gal(b1-4)Gal,-1.2
same,glycan array binding signal (z-score),[12],-0.204
same,glycan array binding signal (z-score),[13],-0.141
same,glycan array binding signal (z-score),Gal(b1-4)Glc,-0.252
same,glycan array binding signal (z-score),Gal(b1-4)Glc6S,-0.01
same,glycan array binding signal (z-score),Gal(b1-4)GlcNAc,-0.568
same,glycan array binding signal (z-score),[14],0.566
same,glycan array binding signal (z-score),Gal(b1-4)GlcNAc(b1-2)Man,-0.756
same,glycan array binding signal (z-score),[15],-0.987
same,glycan array binding signal (z-score),[16],0.482
same,glycan array binding signal (z-score),[17],0.244
same,glycan array binding signal (z-score),[18],0.159
same,glycan array binding signal (z-score),[19],-1.48
same,glycan array binding signal (z-score),[20],-0.6
same,glycan array binding signal (z-score),[21],0.099
same,glycan array binding signal (z-score),[22],-1.08
same,glycan array binding signal (z-score),[23],-0.011
same,glycan array binding signal (z-score),[24],-0.885
same,glycan array binding signal (z-score),[25],1.11
same,glycan array binding signal (z-score),[26],0.717
same,glycan array binding signal (z-score),[27],-0.934
same,glycan array binding signal (z-score),[28],-1.1
same,glycan array binding signal (z-score),[29],-0.14
same,glycan array binding signal (z-score),[30],0.055
same,glycan array binding signal (z-score),[31],-1.32
same,glycan array binding signal (z-score),[32],-0.615
same,glycan array binding signal (z-score),[33],-0.348
same,glycan array binding signal (z-score),[34],-1.18
same,glycan array binding signal (z-score),[35],0.13
same,glycan array binding signal (z-score),[36],0.628
same,glycan array binding signal (z-score),[37],-0.972
same,glycan array binding signal (z-score),[38],0.414
same,glycan array binding signal (z-score),[39],1.14

# In a second layout: results already given.
binder	measurement	setting	value
Nc3LysM-2 (protein) AHVLQARQSVSCDFATAANTGDTCASFAAAWGITEAAFAKLNPGVSCPGNLIAGSEYCVIGTVSTGAPTTTKAATTSTTPPTTTTTTKATTLSTSTTSVSPTGPSPQMPSITSTCNKFYQVQSGDGCWSIEQAQGVSASDFMAWNKAVDAQCDNLWLGYYVCVGVKGGSSPPPTTTTKPASSSAPTPQMPNTVSNCKKFHKVVSGDGCWAIEQAAGISASDFAKWNPYVDAACDNLWLGYYVCIGV	glycan array binding signal (z-score)	[16]	0.482
same	glycan array binding signal (z-score)	[17]	0.244
same	glycan array binding signal (z-score)	[18]	0.159
same	glycan array binding signal (z-score)	[19]	-1.48
